Assay results as given in US20130225669A1 (priority 2012, published 2013).

Test: Three-point bending tests of genipin-treated bone
Design: species or system bovine
Conditions: for bending modulus / maximum flexural strength: one week

SMILES: COC(=O)C1=CO[C@@H](O)C2C(CO)=CC[C@H]12 (stereo in doubt) [genipin, methyl (1R,2R,6S)-2-hydroxy-9-(hydroxymethyl)-3-oxabicyclo [4.3.0]nona-4,8-diene-5-carboxylate]
- bone mechanical outcomes versus PBS (0.63% genipin in PBS, 1 week at 25° C., N=7-9): No statistically significant differences
- bone mechanical outcomes versus 90% ethanol alone (2% genipin in 90% ethanol, 1 week at 25° C., N=7-9): No statistically significant differences
- bending modulus (15 mL/0.625% genipin in PBS): 19.2±2.2 GPa
- maximum flexural strength (15 mL/0.625% genipin in PBS): 293.0±20.3 MPa
- bending modulus (25 mL/0.625% genipin in PBS): 26.7±2.2 GPa
- maximum flexural strength (25 mL/0.625% genipin in PBS): 346.9±42.3 MPa
